# The supplement of paper PMC12067093, “Discovery and optimisation of a covalent ligand for TRIM25 and its application to targeted protein ubiquitination” (Chemical Science, 2025)
# Sequences of proteins named here, by UniProt entry; tags and fusion partners are left off. A change or cut given only in a name is not applied to a line headed by its entry.
# UniProt Q15276: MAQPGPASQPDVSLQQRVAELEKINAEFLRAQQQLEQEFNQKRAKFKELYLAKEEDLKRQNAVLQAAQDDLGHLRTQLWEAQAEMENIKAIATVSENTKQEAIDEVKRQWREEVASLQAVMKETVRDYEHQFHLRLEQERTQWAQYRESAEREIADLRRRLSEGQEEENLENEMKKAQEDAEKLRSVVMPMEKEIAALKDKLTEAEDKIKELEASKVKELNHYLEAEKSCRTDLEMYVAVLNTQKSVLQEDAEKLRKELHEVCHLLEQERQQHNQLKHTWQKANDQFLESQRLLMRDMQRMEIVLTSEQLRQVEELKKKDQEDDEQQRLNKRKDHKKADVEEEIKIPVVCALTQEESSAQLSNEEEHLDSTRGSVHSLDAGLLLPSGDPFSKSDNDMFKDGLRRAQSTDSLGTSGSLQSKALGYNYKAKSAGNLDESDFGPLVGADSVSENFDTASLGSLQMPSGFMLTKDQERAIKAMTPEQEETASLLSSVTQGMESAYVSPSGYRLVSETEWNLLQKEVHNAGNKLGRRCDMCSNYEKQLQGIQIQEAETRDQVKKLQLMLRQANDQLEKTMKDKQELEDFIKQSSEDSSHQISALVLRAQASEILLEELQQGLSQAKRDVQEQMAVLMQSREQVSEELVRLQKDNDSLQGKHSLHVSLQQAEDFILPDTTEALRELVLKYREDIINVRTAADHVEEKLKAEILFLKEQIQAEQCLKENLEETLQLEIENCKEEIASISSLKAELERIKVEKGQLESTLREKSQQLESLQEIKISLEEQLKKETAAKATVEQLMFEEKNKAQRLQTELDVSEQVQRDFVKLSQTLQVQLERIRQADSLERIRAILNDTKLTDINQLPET
# UniProt O95716: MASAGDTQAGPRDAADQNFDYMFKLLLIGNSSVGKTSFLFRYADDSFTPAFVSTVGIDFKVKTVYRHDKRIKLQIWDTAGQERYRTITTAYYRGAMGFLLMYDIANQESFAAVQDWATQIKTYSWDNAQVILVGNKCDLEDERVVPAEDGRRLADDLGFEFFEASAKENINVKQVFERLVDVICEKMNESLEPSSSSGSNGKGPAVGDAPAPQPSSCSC
# UniProt Q9H0R6: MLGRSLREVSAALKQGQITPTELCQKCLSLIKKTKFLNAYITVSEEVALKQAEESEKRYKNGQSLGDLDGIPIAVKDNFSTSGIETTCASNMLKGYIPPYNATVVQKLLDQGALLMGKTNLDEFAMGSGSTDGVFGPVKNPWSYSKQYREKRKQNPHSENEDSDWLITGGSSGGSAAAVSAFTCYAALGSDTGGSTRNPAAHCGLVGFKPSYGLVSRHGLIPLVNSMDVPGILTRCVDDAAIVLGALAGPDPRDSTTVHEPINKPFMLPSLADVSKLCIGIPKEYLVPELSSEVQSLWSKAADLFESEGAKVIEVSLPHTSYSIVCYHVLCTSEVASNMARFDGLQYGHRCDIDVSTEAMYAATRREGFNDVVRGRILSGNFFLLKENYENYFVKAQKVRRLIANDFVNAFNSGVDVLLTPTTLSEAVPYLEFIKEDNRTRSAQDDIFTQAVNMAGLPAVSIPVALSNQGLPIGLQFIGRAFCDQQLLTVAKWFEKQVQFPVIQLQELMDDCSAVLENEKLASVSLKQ
# UniProt P47897: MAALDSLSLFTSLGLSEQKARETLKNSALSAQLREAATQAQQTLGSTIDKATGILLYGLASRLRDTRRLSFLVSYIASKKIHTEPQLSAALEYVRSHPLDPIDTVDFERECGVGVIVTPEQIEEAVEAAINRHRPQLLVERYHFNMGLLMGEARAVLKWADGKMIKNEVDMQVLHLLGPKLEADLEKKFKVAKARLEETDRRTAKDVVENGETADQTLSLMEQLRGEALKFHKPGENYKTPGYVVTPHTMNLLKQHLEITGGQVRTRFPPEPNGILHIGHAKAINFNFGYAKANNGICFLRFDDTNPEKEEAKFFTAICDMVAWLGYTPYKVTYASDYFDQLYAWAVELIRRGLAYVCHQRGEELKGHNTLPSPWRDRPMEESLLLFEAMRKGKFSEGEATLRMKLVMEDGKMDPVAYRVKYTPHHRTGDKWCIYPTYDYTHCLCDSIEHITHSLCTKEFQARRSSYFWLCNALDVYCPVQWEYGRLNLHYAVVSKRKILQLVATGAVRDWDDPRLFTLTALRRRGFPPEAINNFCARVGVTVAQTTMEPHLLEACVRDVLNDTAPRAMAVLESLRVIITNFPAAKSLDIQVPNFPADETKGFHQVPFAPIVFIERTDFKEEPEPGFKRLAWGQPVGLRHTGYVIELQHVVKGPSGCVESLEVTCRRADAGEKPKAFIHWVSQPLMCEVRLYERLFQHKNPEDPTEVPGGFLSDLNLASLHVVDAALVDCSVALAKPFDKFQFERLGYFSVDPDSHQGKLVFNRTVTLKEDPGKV
# UniProt Q7Z5L2: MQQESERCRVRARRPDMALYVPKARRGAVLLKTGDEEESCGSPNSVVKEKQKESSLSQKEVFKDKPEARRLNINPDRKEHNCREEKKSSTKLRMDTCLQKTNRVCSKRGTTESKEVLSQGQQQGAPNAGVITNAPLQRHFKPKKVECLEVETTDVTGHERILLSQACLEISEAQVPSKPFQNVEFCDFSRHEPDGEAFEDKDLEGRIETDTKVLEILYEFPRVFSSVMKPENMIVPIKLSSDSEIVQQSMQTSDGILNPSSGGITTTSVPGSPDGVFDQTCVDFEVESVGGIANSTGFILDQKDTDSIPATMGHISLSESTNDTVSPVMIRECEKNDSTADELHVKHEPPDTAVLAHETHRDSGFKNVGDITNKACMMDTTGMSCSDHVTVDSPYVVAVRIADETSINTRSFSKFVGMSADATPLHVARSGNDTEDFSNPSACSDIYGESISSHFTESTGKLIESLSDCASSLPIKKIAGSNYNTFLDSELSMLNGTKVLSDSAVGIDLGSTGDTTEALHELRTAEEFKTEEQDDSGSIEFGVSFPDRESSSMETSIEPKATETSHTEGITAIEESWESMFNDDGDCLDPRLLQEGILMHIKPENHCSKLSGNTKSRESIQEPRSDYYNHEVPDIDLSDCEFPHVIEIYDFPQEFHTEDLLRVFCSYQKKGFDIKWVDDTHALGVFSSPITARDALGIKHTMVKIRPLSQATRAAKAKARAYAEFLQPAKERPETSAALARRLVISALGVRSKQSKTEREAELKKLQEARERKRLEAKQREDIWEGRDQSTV
# UniProt Q7Z6P3: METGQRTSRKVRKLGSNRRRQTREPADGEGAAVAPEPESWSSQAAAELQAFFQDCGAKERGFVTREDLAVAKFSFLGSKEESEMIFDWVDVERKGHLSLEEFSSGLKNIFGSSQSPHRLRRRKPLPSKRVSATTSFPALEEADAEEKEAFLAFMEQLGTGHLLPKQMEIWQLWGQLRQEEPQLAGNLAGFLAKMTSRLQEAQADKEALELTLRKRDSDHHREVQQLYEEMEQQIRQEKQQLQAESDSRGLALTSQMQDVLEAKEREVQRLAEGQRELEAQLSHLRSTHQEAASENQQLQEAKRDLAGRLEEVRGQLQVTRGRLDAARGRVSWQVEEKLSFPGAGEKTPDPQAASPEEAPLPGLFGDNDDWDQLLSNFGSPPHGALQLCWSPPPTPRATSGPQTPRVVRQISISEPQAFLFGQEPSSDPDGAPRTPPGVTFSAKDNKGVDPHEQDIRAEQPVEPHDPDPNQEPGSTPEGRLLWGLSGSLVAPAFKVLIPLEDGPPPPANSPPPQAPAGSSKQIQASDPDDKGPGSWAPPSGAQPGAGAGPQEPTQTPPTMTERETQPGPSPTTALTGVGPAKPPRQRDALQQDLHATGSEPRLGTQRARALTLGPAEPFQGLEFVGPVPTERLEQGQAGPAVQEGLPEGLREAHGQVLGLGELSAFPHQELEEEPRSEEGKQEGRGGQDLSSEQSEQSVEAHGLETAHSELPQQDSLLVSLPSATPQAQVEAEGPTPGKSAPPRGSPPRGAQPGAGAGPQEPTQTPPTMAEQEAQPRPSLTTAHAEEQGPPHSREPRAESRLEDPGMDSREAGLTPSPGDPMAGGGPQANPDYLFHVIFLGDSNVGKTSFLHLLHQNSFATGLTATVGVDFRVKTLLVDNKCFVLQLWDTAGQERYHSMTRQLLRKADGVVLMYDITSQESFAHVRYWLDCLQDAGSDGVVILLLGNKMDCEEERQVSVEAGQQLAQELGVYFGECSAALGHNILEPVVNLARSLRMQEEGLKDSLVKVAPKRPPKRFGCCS
# UniProt P61026: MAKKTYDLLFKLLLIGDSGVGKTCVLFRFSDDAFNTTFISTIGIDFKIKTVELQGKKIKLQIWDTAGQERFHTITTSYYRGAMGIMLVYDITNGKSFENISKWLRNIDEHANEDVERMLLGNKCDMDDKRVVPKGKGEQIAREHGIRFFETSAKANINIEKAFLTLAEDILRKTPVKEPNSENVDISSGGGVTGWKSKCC
# UniProt Q9H2M9: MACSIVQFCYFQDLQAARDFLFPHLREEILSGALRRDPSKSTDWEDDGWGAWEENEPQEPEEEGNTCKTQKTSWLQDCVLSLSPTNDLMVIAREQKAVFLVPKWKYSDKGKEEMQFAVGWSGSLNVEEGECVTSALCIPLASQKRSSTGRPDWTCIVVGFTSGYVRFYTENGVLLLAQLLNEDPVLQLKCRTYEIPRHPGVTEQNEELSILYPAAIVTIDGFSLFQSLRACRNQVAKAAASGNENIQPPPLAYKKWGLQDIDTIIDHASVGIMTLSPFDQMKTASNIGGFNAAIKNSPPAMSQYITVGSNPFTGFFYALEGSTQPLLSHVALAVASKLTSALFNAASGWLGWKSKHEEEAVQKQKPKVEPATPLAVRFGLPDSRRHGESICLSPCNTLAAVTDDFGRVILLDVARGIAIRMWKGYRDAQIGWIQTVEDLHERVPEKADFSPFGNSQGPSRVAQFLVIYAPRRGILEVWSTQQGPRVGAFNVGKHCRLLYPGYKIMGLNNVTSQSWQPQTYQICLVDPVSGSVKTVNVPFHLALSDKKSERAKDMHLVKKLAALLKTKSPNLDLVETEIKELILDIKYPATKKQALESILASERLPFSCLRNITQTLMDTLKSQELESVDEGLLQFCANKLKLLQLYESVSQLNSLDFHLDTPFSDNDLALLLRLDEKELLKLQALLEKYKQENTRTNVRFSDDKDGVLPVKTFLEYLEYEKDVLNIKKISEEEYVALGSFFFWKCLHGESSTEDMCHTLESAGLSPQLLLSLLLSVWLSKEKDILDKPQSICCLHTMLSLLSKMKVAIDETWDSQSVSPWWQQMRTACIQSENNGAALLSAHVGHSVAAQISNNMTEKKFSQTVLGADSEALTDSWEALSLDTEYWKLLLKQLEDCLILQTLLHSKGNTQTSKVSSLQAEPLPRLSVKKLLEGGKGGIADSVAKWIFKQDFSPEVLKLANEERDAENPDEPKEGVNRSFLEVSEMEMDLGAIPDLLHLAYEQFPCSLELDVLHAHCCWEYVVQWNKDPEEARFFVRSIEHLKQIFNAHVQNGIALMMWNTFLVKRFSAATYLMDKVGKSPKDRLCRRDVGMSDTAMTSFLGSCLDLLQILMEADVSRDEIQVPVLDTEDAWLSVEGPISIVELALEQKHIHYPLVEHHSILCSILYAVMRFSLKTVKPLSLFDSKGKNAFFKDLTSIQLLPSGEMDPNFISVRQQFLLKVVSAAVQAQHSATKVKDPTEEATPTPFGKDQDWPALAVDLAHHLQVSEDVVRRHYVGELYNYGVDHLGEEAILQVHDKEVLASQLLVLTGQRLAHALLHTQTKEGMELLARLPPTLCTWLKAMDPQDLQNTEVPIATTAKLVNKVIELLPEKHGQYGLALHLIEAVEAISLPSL
# UniProt Q3MIT2: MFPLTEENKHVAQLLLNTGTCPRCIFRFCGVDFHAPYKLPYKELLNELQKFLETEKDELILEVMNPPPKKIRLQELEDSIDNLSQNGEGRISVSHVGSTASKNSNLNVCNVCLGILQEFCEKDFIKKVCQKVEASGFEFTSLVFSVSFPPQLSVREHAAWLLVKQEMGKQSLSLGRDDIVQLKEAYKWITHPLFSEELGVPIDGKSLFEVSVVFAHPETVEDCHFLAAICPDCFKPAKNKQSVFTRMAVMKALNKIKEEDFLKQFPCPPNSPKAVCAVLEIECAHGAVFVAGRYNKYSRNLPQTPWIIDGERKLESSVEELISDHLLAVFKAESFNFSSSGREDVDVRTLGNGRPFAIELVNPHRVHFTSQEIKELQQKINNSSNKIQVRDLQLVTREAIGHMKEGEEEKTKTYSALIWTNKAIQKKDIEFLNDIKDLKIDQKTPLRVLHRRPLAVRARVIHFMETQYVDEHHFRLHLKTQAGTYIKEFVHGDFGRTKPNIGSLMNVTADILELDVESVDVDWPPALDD
# UniProt O14966: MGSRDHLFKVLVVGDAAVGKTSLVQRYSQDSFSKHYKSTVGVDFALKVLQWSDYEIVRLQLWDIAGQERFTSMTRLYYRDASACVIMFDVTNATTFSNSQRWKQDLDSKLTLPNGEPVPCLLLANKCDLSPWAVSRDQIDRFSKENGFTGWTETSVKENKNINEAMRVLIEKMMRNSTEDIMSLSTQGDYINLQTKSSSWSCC
# The list shows a part of the results.
# Compound: CC1Cc2ccccc2N1C(=O)C1CCCN(C1)C(=O)CCl (mixture of isomers) [TRIM25 ligand 11 (diastereomer mixture)]
# Assay: probe-labelled cysteine peptide fold change vs DMSO (competition) (log2 fold change); higher = less target engagement (more negative = stronger competition)
# Conditions: 10 µM; THP-1; incubation time: 4 h
# 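Also: competitive chemoproteomic profiling in live THP-1 cells with an iodoacetamide desthiobiotin (IA-DTB) probe, comparing probe-labelled peptide intensities in compound-treated cells against DMSO-treated controls.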
row,Target,probe-labelled cysteine peptide fold change
1,RABEP1_Q15276_350_IPVVCALTQEESSAQLSNEEEHLDSTR (UniProt Q15276),-0.0072
2,RABGGTA_Q92696_371_STVLQSELESCK (UniProt Q92696),0.0349
3,PUS7_Q96PZ0_443_CVEGQLLR (UniProt Q96PZ0),0.0363
4,RAB3GAP1_Q15042_272_LPFGACEDPISELHLATTWPHLTEGIIVDNDVYSDLDPIQAPHWSVR (UniProt Q15042),0.306
5,RAC2_P15153_105_HHCPSTPIILVGTK (UniProt P15153),-0.029
6,PYGB_P11216_437_MSVIEEGDCKR (UniProt P11216),-0.132
7,RAD50_Q92878_102_SMVCTQK (UniProt Q92878),-0.105
8,RABGGTA_Q92696_487_CLEVLQASDNAIESLDGVTNLPR (UniProt Q92696),-0.113
9,RABEP2_Q9H5N1_372_CLHHEVK (UniProt Q9H5N1),-0.0845
10,RACK1_P63244_182_VWNLANCK (UniProt P63244),-0.00342
11,RAB3D_O95716_137_TYSWDNAQVILVGNKCDLEDER (UniProt O95716),-0.197
12,PUS7_Q96PZ0_258_GSYCHFVLYK (UniProt Q96PZ0),-0.0631
13,RAB3GAP1_Q15042_181_MYVGECQGPGVR (UniProt Q15042),0.104
14,RAB39A_Q14964_23_SCLLHR (UniProt Q14964),0.178
15,QRSL1_Q9H0R6_278_LCIGIPK (UniProt Q9H0R6),0.0202
16,QARS_P47897_433_WCIYPTYDYTHCLCDSIEHITHSLCTK (UniProt P47897),0.0677
17,RACK1_P63244_153_YTVQDESHSEWVSCVR (UniProt P63244),0.0663
18,RAB18_Q9NP72_155+160_TCDGVQCAFEELVEK (UniProt Q9NP72),0.265

row,Target,probe-labelled cysteine peptide fold change
1,RAB21_Q9UL25_177_GIEELFLDLCK (UniProt Q9UL25),0.0968
2,R3HCC1L_Q7Z5L2_147_KVECLEVETTDVTGHER (UniProt Q7Z5L2),-0.141
3,RAB44_Q7Z6P3_950_MDCEEER (UniProt Q7Z6P3),0.176
4,PYGB_P11216_326_TCFETFPDK (UniProt P11216),-0.162
5,PXN_P49023_290_CWAAGWPR (UniProt P49023),0.0794
6,RABGAP1_Q9Y3P9_582_GEVWQLLAGCHNNDHLVEK (UniProt Q9Y3P9),0.0764
7,RAB10_P61026_124_CDMDDKR (UniProt P61026),-0.21
8,PUM2_Q8TB72_983_ALLIDEVCCQNDGPHSALYTMMK (UniProt Q8TB72),0.168
9,RAD50_Q92878_133_CAEIDREMISSLGVSK (UniProt Q92878),-0.141
10,RAB3GAP2_Q9H2M9_395_RHGESICLSPCNTLAAVTDDFGR (UniProt Q9H2M9),-0.0512
11,PUS10_Q3MIT2_21_HVAQLLLNTGTCPR (UniProt Q3MIT2),-0.158
12,QTRT1_Q9BXR0_23_LVAECSR (UniProt Q9BXR0),-0.103
13,RAB29_O14966_127_CDLSPWAVSR (UniProt O14966),0.00041
14,RAB3IL1_Q8TBN0_97_LKDEECER (UniProt Q8TBN0),-0.0448
15,PUS7L_Q9H0K6_15_FSSLCFFNDHVGFHGTIK (UniProt Q9H0K6),0.0462
16,QTRT1_Q9BXR0_317_DFGPIDPECTCPTCQK (UniProt Q9BXR0),0.212
17,QARS_P47897_445_WCIYPTYDYTHCLCDSIEHITHSLCTK (UniProt P47897),0.0915
18,RAD1_O60671_215_DSDLMEAFHCNQTQVNR (UniProt O60671),0.0173

# Same assay, conditions: 50 µM; THP-1; incubation time: 4 h
row,Target,probe-labelled cysteine peptide fold change
1,RABEP1_Q15276_350_IPVVCALTQEESSAQLSNEEEHLDSTR (UniProt Q15276),-0.0899
2,RABGGTA_Q92696_371_STVLQSELESCK (UniProt Q92696),0.00927
3,PUS7_Q96PZ0_443_CVEGQLLR (UniProt Q96PZ0),0.0924
4,RAB3GAP1_Q15042_272_LPFGACEDPISELHLATTWPHLTEGIIVDNDVYSDLDPIQAPHWSVR (UniProt Q15042),-0.189
5,RAC2_P15153_105_HHCPSTPIILVGTK (UniProt P15153),-0.0965
6,PYGB_P11216_437_MSVIEEGDCKR (UniProt P11216),-0.148
7,RAD50_Q92878_102_SMVCTQK (UniProt Q92878),0.109
8,RABGGTA_Q92696_487_CLEVLQASDNAIESLDGVTNLPR (UniProt Q92696),0.00806
9,RABEP2_Q9H5N1_372_CLHHEVK (UniProt Q9H5N1),-0.144
10,RACK1_P63244_182_VWNLANCK (UniProt P63244),-0.0444
11,RAB3D_O95716_137_TYSWDNAQVILVGNKCDLEDER (UniProt O95716),-0.381
12,PUS7_Q96PZ0_258_GSYCHFVLYK (UniProt Q96PZ0),-0.0195
13,RAB3GAP1_Q15042_181_MYVGECQGPGVR (UniProt Q15042),0.177
14,RAB39A_Q14964_23_SCLLHR (UniProt Q14964),0.086
15,QRSL1_Q9H0R6_278_LCIGIPK (UniProt Q9H0R6),0.097
16,QARS_P47897_433_WCIYPTYDYTHCLCDSIEHITHSLCTK (UniProt P47897),-0.0868
17,RACK1_P63244_153_YTVQDESHSEWVSCVR (UniProt P63244),0.204
18,RAB18_Q9NP72_155+160_TCDGVQCAFEELVEK (UniProt Q9NP72),-0.0579

row,Target,probe-labelled cysteine peptide fold change
1,RAB21_Q9UL25_177_GIEELFLDLCK (UniProt Q9UL25),0.0672
2,R3HCC1L_Q7Z5L2_147_KVECLEVETTDVTGHER (UniProt Q7Z5L2),0.168
3,RAB44_Q7Z6P3_950_MDCEEER (UniProt Q7Z6P3),0.106
4,PYGB_P11216_326_TCFETFPDK (UniProt P11216),-0.207
5,PXN_P49023_290_CWAAGWPR (UniProt P49023),-0.093
6,RABGAP1_Q9Y3P9_582_GEVWQLLAGCHNNDHLVEK (UniProt Q9Y3P9),0.0142
7,RAB10_P61026_124_CDMDDKR (UniProt P61026),-0.229
8,PUM2_Q8TB72_983_ALLIDEVCCQNDGPHSALYTMMK (UniProt Q8TB72),-0.126
9,RAD50_Q92878_133_CAEIDREMISSLGVSK (UniProt Q92878),-0.398
10,RAB3GAP2_Q9H2M9_395_RHGESICLSPCNTLAAVTDDFGR (UniProt Q9H2M9),0.0695
11,PUS10_Q3MIT2_21_HVAQLLLNTGTCPR (UniProt Q3MIT2),0.113
12,QTRT1_Q9BXR0_23_LVAECSR (UniProt Q9BXR0),-0.0782
13,RAB29_O14966_127_CDLSPWAVSR (UniProt O14966),-0.0201
14,RAB3IL1_Q8TBN0_97_LKDEECER (UniProt Q8TBN0),-0.0486
15,PUS7L_Q9H0K6_15_FSSLCFFNDHVGFHGTIK (UniProt Q9H0K6),0.114
16,QTRT1_Q9BXR0_317_DFGPIDPECTCPTCQK (UniProt Q9BXR0),0.108
17,QARS_P47897_445_WCIYPTYDYTHCLCDSIEHITHSLCTK (UniProt P47897),-0.0265
18,RAD1_O60671_215_DSDLMEAFHCNQTQVNR (UniProt O60671),0.0642
